Where a name gives a salt, the structure may show the parent alone. Some of the results follow. Cut-off read from the data, not from the text of the source: active = 0.7 or more and inactive = the rest. Many values rest on one well or one pass, so single values are uncertain.

For this assay, the system named is MiaPaCa-2 CLSA-25. Briefly: cell death relative to DMSO vehicle (fraction); higher = more cytotoxic. To be noted: 5 µM; treatment time 48 h; medium cystine 25 µM.
For the compound `CNC(=O)[C@H](Cc1c[nH]c2ccccc12)NC(=O)[C@@H](CC(=O)NO)CC(C)C` [Ilomastat], the cell death is inactive: 0.171. The value for `C[C@]12CCC(=O)C=C1CC[C@@H]1[C@@H]2C(=O)C[C@@]2(C)[C@H]1CC[C@]2(O)C(=O)CO` [Cortisone] was inactive: 0.0774; that for `CCCNC(=O)NS(=O)(=O)c1ccc(Cl)cc1` [Chlorpropamide] was inactive: 0.497; that for `CC(C)NNC(=O)c1ccncc1` [Iproniazid Phosphate] was inactive: -0.00348. In the case of `Nc1ccc(/C=C/C(=O)NCc2cc3cc(-c4ccc(C(=O)N5CCC(F)(F)CC5)cc4)cc(-c4ccc(F)cc4)c3o2)cn1`, the cell death is inactive: 0.676.

With `NCCc1c[nH]c2ccccc12` [Tryptamine], the cell death is inactive: 0.0704.

As to `CC(c1cc2ccccc2s1)N(O)C(N)=O` (stereo unspecified) [Zileuton], the cell death is inactive: 0.0936. Regarding `C[C@]12CCC(=O)C=C1CC[C@@H]1[C@@H]2[C@@H](O)C[C@@]2(C)[C@H]1CC[C@]2(O)C(=O)CO` [Hydrocortisone], the cell death was inactive: 0.165. Regarding `C#CCN(C)Cc1ccccc1` [Pargyline hydrochloride], the cell death is inactive: 0.0289.

With `C[C@]12CCC(=O)C=C1CC[C@@H]1[C@@H]2CC[C@@]2(C)[C@H]1CC[C@]2(O)C(=O)CO` [Cortodoxone], the cell death is inactive: 0.0894.

`C[C@H]1C[C@H]2[C@@H]3CCC4=CC(=O)C=C[C@]4(C)[C@@]3(F)[C@@H](O)C[C@]2(C)[C@@]1(O)C(=O)CO` [Betamethasone]: the cell death is inactive: 0.102. With `CC(=O)Oc1cc(C(F)(F)F)ccc1C(=O)O` [Triflusal] the figure was inactive: 0.00508; with `O=C(O[C@@H]1Cc2c(O)cc(O)cc2O[C@@H]1c1cc(O)c(O)c(O)c1)c1cc(O)c(O)c(O)c1` [(-)-Epigallocatechin Gallate], inactive: 0.00401; with `C[C@H]1C[C@@H]2[C@H]([C@@H](O)C[C@@]3(C)[C@H]2CC[C@]3(O)C(=O)CO)[C@@]2(C)C=CC(=O)C=C12` [Methylprednisolone], inactive: 0.112. With `N#Cc1ccc([C@H]2CCc3cncn32)c(F)c1` [Osilodrostat] the figure was inactive: 0.019; with `O=C1O[C@H]([C@@H](O)CO)C(O)=C1O` [L(+)-Ascorbic acid], inactive: 0.16.

Values taken from the supplement of paper PMC12872613.
